Source: PMC8427430
Results are given in words; binding and its absence hold for the method and conditions named. Binding seen in cells or lysates may run through a third protein. Some results given as binding are weak or reduced against the parent protein; the word gives no strength. For part of these data: Tags and fused reporters may be left off the sequences shown. Blank lines part the entries; values can stand above or below the binder they belong to.

By UniProt entry, the sequences of proteins in these tests, tags left out. Where a name states a change or a piece, a line headed by the entry shows the natural chain unless it says otherwise. Residues count along the entry.
UniProt Q96P20: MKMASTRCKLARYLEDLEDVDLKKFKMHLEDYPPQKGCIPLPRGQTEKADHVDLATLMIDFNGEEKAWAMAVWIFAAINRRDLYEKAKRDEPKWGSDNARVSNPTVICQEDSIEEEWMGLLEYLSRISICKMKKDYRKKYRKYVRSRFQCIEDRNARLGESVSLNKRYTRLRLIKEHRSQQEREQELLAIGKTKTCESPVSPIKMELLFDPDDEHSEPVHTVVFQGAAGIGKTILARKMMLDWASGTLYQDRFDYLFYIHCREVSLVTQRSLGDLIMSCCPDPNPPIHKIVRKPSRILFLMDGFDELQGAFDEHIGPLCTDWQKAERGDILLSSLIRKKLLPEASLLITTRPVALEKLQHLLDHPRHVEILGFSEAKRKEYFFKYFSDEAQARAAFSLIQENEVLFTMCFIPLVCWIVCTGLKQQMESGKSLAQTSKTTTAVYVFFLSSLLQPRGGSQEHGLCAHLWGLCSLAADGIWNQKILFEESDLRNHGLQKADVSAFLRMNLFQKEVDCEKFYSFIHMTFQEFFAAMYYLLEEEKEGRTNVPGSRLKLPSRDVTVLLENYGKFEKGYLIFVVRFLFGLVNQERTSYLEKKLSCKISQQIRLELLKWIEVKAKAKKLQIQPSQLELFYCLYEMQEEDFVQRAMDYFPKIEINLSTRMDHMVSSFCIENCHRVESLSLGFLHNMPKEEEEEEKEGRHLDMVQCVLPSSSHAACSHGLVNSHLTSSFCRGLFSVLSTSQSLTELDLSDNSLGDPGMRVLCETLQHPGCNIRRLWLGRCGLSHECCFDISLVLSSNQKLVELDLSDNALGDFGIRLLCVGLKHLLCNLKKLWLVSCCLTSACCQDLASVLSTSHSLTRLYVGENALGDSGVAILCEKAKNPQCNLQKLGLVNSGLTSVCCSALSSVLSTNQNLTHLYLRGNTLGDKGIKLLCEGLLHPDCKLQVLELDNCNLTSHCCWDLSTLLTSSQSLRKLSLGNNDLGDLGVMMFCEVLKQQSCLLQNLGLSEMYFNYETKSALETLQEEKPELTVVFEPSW
Flag-NACHT (NLRP3 NACHT domain): residues 220-536 of Q96P20

What was measured:
[1] = target: Mcherry-NLRP3 (UniProt Q96P20); assay: co-IP; Flag-NEK7 and mCherry-NLRP3 co-expressed in HEK-293T cells with or without different doses of GFP-TRIM65 (Figure 4F)
[2] = target: Flag-NLRP3 (full length) (UniProt Q96P20); assay: co-IP; both partners cotransfected in HEK-293T cells (polyethylenimine, 24 h); extracts immunoprecipitated (anti-Flag beads 3 h at 4°C, or antibody and protein A/G agarose 12 h at 4°C), washed four times in NP-40 lysis buffer, western blotting (Figures 1A, 1F, 1G)
[3] = target: Flag-NACHT (NLRP3 NACHT domain) (UniProt Q96P20); assay: as above
[4] = target: VSV-NLRP3 (UniProt Q96P20); assay: as above
[5] = target: endogenous NLRP3 (THP-1) (human (endogenous in THP-1)) (UniProt Q96P20); assay: co-IP; both endogenous; lysates of PMA-differentiated and LPS-primed THP-1 cells immunoprecipitated with anti-NLRP3 antibody (Figure 1C); also with or without MSU stimulation (Figure 4D)
[6] = target: Flag-NLRP3 (full length) (UniProt Q96P20); assay: co-IP; Flag-NLRP3 transfected in HEK-293T cells, endogenous TRIM65 detected by western blotting (Figure 1B)

B1: GFP-TRIM65 (full length) (protein, UniProt Q6PJ69 1-517)
chain: MAAQLLEEKLTCAICLGLYQDPVTLPCGHNFCGACIRDWWDRCGKACPECREPFPDGAELRRNVALSGVLEVVRAGPARDPGPDPGPGPDPAARCPRHGRPLELFCRTEGRCVCSVCTVRECRLHERALLDAERLKREAQLRASLEVTQQQATQAEGQLLELRKQSSQIQNSACILASWVSGKFSSLLQALEIQHTTALRSIEVAKTQALAQARDEEQRLRVHLEAVARHGCRIRELLEQVDEQTFLQESQLLQPPGPLGPLTPLQWDEDQQLGDLKQLLSRLCGLLLEEGSHPGAPAKPVDLAPVEAPGPLAPVPSTVCPLRRKLWQNYRNLTFDPVSANRHFYLSRQDQQVKHCRQSRGPGGPGSFELWQVQCAQSFQAGHHYWEVRASDHSVTLGVSYPQLPRCRLGPHTDNIGRGPCSWGLCVQEDSLQAWHNGEAQRLPGVSGRLLGMDLDLASGCLTFYSLEPQTQPLYTFHALFNQPLTPVFWLLEGRTLTLCHQPGAVFPLGPQEEVLS
binding [1]: binds | binding [2]: binds | binding [3]: binds

B2: Flag-TRIM65 (full length, Figure 1F) (protein, UniProt Q6PJ69 1-517)
chain: MAAQLLEEKLTCAICLGLYQDPVTLPCGHNFCGACIRDWWDRCGKACPECREPFPDGAELRRNVALSGVLEVVRAGPARDPGPDPGPGPDPAARCPRHGRPLELFCRTEGRCVCSVCTVRECRLHERALLDAERLKREAQLRASLEVTQQQATQAEGQLLELRKQSSQIQNSACILASWVSGKFSSLLQALEIQHTTALRSIEVAKTQALAQARDEEQRLRVHLEAVARHGCRIRELLEQVDEQTFLQESQLLQPPGPLGPLTPLQWDEDQQLGDLKQLLSRLCGLLLEEGSHPGAPAKPVDLAPVEAPGPLAPVPSTVCPLRRKLWQNYRNLTFDPVSANRHFYLSRQDQQVKHCRQSRGPGGPGSFELWQVQCAQSFQAGHHYWEVRASDHSVTLGVSYPQLPRCRLGPHTDNIGRGPCSWGLCVQEDSLQAWHNGEAQRLPGVSGRLLGMDLDLASGCLTFYSLEPQTQPLYTFHALFNQPLTPVFWLLEGRTLTLCHQPGAVFPLGPQEEVLS
binding [4]: binds

Continued, values first:

binding [5]: binds
B3: endogenous TRIM65 (THP-1) (protein, UniProt Q6PJ69 1-517)
chain: MAAQLLEEKLTCAICLGLYQDPVTLPCGHNFCGACIRDWWDRCGKACPECREPFPDGAELRRNVALSGVLEVVRAGPARDPGPDPGPGPDPAARCPRHGRPLELFCRTEGRCVCSVCTVRECRLHERALLDAERLKREAQLRASLEVTQQQATQAEGQLLELRKQSSQIQNSACILASWVSGKFSSLLQALEIQHTTALRSIEVAKTQALAQARDEEQRLRVHLEAVARHGCRIRELLEQVDEQTFLQESQLLQPPGPLGPLTPLQWDEDQQLGDLKQLLSRLCGLLLEEGSHPGAPAKPVDLAPVEAPGPLAPVPSTVCPLRRKLWQNYRNLTFDPVSANRHFYLSRQDQQVKHCRQSRGPGGPGSFELWQVQCAQSFQAGHHYWEVRASDHSVTLGVSYPQLPRCRLGPHTDNIGRGPCSWGLCVQEDSLQAWHNGEAQRLPGVSGRLLGMDLDLASGCLTFYSLEPQTQPLYTFHALFNQPLTPVFWLLEGRTLTLCHQPGAVFPLGPQEEVLS

binding [6]: binds
B4: endogenous TRIM65 (HEK-293T) (protein, UniProt Q6PJ69 1-517)
chain: MAAQLLEEKLTCAICLGLYQDPVTLPCGHNFCGACIRDWWDRCGKACPECREPFPDGAELRRNVALSGVLEVVRAGPARDPGPDPGPGPDPAARCPRHGRPLELFCRTEGRCVCSVCTVRECRLHERALLDAERLKREAQLRASLEVTQQQATQAEGQLLELRKQSSQIQNSACILASWVSGKFSSLLQALEIQHTTALRSIEVAKTQALAQARDEEQRLRVHLEAVARHGCRIRELLEQVDEQTFLQESQLLQPPGPLGPLTPLQWDEDQQLGDLKQLLSRLCGLLLEEGSHPGAPAKPVDLAPVEAPGPLAPVPSTVCPLRRKLWQNYRNLTFDPVSANRHFYLSRQDQQVKHCRQSRGPGGPGSFELWQVQCAQSFQAGHHYWEVRASDHSVTLGVSYPQLPRCRLGPHTDNIGRGPCSWGLCVQEDSLQAWHNGEAQRLPGVSGRLLGMDLDLASGCLTFYSLEPQTQPLYTFHALFNQPLTPVFWLLEGRTLTLCHQPGAVFPLGPQEEVLS
